Measurements as given in CN116217727A.
No constants are given. Whether binding was seen depends on the method and setting. Some binding calls cover weakened binding; strength is not graded here.

Sequences of proteins named here, by UniProt entry; tags and fusion partners are left off. A change or cut given only in a name is not applied to a line headed by its entry. Residues count along the entry.
UniProt P20273: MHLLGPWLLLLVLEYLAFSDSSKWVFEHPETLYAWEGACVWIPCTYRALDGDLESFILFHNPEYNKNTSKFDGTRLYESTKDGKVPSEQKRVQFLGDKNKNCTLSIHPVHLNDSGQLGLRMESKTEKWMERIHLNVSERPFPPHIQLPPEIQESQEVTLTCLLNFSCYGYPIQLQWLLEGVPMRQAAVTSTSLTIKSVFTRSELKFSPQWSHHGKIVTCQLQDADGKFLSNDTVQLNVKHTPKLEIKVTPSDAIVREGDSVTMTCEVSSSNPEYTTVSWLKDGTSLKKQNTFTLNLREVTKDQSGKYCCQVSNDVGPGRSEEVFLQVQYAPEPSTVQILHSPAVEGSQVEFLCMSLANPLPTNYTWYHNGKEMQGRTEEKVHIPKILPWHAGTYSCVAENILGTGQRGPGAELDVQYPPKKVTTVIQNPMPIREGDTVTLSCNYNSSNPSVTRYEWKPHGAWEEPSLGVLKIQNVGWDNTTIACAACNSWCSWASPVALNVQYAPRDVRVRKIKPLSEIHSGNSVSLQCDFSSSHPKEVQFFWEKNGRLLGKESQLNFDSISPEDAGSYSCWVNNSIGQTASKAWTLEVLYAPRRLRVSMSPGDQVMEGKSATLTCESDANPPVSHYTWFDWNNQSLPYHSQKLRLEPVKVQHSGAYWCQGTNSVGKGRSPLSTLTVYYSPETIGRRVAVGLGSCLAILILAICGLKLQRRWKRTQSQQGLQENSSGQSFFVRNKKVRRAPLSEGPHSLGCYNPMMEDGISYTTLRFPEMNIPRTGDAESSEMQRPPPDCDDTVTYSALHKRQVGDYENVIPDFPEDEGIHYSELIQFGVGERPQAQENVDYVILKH
CD22 on K562-CD22 cells: residues 20-847 of P20273
CD22单价抗原 (monovalent CD22 antigen): residues 20-687 of P20273

How the values were obtained:
[1] = target: 人CD22抗原 (human CD22 antigen, coated in ELISA) (human) (UniProt P20273); test: phage ELISA on coated CD22 antigen, anti-M13-HRP
CD22 on K562-CD22 cells = CD22 on K562-CD22 cells (UniProt P20273); test: flow cytometry on CD22-positive cells
[2] = target: CD22单价抗原 (monovalent CD22 antigen) (UniProt P20273); test: BLI (Octet K2), scFv on sensor, CD22 monovalent antigen as analyte

Row | binding [1] | binding (CD22 on K562-CD22 cells) | binding [2] | Binder
1 | binds | binds | binds | SK-04-E07/E-1-35 (scFv, V domains shown) VH: EVQLQQSGPGLVKPSQTLSLTCAISGDSVSSNSAAWNWIRQSPSRGLEWLGRTYYRSKWYNDYAVSVKSRITINPDTSKNQFSLQLNSVTPEDTALYYCARSVGIARWDVWGQGTTVTVSS VL: DIQLTQSPSSLSASVGDRVTITCRASQSISSYLNWYQQKPGKAPELLIYSASTLHGELPSRFSGSGSGTDFNLTISSLQPEDFATYYCQQSFTTPFTFGPGTKVDIKR
2 | binds | binds |  | SK-01-A14/E-1-29 (scFv, V domains shown) VH: EVQLVESGGGVVQPGRSLRLSCAASGFKFDDYPMHWVRQPPGRGLEWVSLISWDGKTTYIGDSLKGRFTVSRDNNKNSLYLEINNLRSEDGALYYCAKDRSRTGWGYGGMDVWGRGTMVTVSS VL: DIQLTQSPSSLSASVGDRVTITCRTSQTIDNYLNWYQVKSGKAPKLLIYAASSLQSGVPSRFSGSGSGTDFTLTISSLQPEDFATYYCQQSYSTPPMYTFGQGTKLEIKG
3 | binds | binds | binds | SK-03-B09/D-2-13 (scFv, V domains shown) VH: QVQLVQSGAEVKKPGASVKVSCKASGYTFTSYGISWVRQAPGQGLEWMGWISAYNGNTNYAQKLQGRVTMTTDTSTSTAYMELRSLRSDDTAVYYCARDFQGIAVADLDYWGQGTLVTVSS VL: ETTLTQSPATLSVSPGERATLSCRASQSVSSNLAWYQQKPGQAPRLLIYGASTRATGIPARFSGSGSGTEFTLTISSLQSEDFAIYYCQQYHSWPPLTFGGGTKLEIKR
